{"source": "patent US9279806B2", "about": "“Water-soluble AIE luminogens for monitoring and retardation of fibrillation of amyloid proteins” (THE HONG KONG UNIVERSITY OF SCIENCE AND TECHNOLOGY, priority 2005, dated 2016)", "test_system": "G1", "assay": "PAGE assay of G1, gel poststaining", "design": "species or system human", "details": "1.3 μM EB", "protocol": "The FL “turn-on” switching of TTAPE by binding to G1 strand inspires us to check whether it can be used as a DNA marker in the PAGE assay. Electrophoresis assay of G1 was performed on a Hoefer miniVE system in 1xTBE buffer under nondenaturing conditions using a 20% native poly(acrylamide) gel at 100V for 3 h at […]. An AlphaDigiDoc™ system with a DE-500 MultiImage™ II light cabinet and an ML-26 UV transilluminator (Alpha Innotech) was used for data collection and analysis. The gel was poststained with a 10 μM TTAPE solution for 5 min at room temperature, rinsed with distilled water, and photographed under UV light at 290-330 nm by the gel documentation system. EB was used to poststain the gel in parallel for comparison. Concentrations of G1 in the range of 0.5-10.0 μM were used to check the visualizability of the dye-stained DNA in the PAGE assay.\nAfter running PAGE of G1 in a Tris-borate-ethylene-diaminetetraacetic acid (TBE) buffer, the gel is stained by a TTAPE solution for 5 min. […] Ethidium bromide (EB) is a widely used visualization agent for PAGE assay. […] The G1 bands are not visualized until the gel has been stained by EB for as long as 30 min. Band visualization by EB is usually realized by its intercalation into the hydrophobic region of DNA, which makes the staining a slow process. […]", "note": "At least one structure is not confirmed: it was looked up by name or label, or the drawing left a doubt.", "data": [{"molecule": "CC[n+]1c(-c2ccccc2)c2cc(N)ccc2c2ccc(N)cc21", "note": "[EB, Ethidium bromide, reference compound]", "values": [{"measurement": "Staining time until G1 bands are visualized", "value": "≥ 30", "unit": "min"}]}]}
